Experiment [1] addresses FLAG-tagged Gαi3 (UniProt P08753). As to the kind of experiment: co-IP.
Experiment [2] deals with GST-tagged Gαi3 (rat) (rat) (UniProt P08753). As to the kind of experiment: pull-down.
The target of experiment [3] is myc-tagged human GIV (wild type) (human) (UniProt Q3V6T2). As to the kind of experiment: co-IP.

Chains of the proteins cited; added tags and fusions are not shown. Lines headed by an entry give the natural chain unless they say otherwise; changes in a name come on top. A line that says so, or that is headed by a name, gives the form on record, which may keep a tag or linker.
UniProt P08753: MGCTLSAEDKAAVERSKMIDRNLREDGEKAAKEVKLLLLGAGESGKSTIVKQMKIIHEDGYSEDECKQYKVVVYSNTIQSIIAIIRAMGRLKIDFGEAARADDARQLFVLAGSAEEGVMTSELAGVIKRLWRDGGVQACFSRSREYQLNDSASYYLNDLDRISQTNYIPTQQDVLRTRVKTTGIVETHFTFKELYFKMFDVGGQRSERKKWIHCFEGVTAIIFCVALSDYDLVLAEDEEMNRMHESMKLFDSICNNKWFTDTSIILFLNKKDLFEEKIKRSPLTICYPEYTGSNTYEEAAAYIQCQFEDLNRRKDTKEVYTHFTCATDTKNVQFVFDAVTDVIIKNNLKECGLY
myc-tagged human GIV (wild type) (Q3V6T2-3, form named): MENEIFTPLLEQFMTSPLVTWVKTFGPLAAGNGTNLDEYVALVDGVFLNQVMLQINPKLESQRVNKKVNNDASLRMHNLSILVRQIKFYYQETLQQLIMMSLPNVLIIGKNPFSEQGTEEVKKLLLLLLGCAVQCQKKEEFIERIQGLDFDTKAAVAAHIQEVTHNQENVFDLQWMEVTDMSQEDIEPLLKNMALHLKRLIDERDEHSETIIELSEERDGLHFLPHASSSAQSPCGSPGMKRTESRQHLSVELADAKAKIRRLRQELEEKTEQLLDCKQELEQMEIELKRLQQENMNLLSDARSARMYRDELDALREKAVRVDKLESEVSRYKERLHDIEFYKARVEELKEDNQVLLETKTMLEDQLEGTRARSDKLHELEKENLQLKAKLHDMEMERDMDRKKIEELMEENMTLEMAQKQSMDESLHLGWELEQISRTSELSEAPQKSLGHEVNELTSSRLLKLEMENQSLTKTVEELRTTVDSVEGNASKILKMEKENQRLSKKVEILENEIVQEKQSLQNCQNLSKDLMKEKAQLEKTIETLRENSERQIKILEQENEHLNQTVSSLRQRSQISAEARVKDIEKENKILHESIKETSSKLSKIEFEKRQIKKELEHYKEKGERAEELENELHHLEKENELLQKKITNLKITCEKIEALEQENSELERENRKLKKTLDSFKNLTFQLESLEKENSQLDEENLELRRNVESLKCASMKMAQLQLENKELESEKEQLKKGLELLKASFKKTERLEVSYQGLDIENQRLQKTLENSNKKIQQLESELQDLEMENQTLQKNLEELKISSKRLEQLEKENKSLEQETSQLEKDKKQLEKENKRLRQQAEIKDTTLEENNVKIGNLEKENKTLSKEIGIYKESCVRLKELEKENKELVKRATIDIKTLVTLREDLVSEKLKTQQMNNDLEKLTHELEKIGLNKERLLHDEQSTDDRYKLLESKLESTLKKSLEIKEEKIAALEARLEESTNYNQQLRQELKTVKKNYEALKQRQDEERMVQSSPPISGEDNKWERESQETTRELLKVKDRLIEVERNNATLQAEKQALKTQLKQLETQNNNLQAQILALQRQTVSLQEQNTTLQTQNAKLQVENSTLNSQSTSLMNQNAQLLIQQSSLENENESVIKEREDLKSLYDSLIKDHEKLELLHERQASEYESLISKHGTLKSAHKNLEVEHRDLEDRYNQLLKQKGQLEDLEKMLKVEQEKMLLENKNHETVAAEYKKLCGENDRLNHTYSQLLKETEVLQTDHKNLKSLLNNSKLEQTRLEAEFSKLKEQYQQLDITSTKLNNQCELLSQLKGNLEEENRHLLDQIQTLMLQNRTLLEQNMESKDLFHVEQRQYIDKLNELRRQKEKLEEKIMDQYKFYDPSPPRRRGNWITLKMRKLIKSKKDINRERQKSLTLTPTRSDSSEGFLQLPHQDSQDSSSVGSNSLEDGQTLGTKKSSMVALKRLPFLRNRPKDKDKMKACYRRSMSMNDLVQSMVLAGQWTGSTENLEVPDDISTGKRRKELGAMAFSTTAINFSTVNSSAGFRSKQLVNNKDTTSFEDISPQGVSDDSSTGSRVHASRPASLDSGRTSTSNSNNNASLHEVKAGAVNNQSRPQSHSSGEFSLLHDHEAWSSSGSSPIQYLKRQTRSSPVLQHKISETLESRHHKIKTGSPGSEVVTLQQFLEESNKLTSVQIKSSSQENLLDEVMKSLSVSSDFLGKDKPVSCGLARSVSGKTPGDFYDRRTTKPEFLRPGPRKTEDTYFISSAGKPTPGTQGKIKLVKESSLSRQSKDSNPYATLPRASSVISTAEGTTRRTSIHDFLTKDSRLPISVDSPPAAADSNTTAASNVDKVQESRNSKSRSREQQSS
myc-tagged human GIV F1685A mutant (Q3V6T2-3, form named): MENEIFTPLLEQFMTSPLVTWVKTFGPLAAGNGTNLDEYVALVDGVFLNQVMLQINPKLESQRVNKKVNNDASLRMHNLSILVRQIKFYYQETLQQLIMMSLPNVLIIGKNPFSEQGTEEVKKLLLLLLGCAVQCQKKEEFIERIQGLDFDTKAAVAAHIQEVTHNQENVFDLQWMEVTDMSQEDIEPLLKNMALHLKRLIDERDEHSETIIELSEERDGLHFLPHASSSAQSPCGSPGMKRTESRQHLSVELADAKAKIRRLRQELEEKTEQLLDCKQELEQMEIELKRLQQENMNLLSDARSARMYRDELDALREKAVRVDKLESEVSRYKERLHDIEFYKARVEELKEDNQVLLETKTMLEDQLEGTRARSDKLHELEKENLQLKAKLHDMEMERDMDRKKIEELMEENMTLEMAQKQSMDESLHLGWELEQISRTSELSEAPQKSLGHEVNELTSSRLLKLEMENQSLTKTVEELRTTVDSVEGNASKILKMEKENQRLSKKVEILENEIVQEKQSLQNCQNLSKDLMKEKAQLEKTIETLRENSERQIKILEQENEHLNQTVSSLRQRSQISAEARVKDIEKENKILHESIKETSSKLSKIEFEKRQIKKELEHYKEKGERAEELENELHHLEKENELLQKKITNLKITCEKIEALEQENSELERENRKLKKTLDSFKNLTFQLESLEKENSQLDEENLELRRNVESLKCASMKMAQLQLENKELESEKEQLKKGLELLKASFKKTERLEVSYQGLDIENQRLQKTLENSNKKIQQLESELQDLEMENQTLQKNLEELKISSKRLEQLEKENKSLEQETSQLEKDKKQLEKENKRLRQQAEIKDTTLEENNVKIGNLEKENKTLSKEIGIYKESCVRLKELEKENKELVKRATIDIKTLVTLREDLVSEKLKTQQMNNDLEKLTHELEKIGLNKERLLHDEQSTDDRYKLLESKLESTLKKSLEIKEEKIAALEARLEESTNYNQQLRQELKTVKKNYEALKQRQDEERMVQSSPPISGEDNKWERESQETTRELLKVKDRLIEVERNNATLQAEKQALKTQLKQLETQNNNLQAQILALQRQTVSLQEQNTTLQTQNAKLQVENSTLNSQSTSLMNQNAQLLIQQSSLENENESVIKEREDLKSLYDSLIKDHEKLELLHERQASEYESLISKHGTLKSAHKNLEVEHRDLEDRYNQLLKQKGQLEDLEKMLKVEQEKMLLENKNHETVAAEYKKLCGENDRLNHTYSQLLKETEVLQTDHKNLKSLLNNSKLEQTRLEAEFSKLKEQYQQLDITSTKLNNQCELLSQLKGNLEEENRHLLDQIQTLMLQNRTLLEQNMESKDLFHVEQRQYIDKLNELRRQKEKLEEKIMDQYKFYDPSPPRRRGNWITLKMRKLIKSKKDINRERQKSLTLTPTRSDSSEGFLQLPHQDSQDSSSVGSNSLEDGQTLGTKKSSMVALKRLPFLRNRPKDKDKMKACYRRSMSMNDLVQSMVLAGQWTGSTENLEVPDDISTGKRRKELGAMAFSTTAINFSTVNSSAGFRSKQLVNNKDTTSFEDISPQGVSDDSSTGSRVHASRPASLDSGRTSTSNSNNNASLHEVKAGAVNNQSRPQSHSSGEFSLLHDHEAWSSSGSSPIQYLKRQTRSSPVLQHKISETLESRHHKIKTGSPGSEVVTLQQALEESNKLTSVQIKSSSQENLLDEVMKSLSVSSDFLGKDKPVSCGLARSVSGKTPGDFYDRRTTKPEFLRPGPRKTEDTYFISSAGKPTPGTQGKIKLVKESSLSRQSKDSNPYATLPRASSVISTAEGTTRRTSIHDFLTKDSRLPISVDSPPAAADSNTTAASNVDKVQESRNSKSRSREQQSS

No constants are given. Whether binding was seen depends on the method and setting. Binding seen in cells or lysates may run through a third protein. Some results given as binding are weak or reduced against the parent protein; the word gives no strength. For some of these results: Where a sequence is shown, tags or fusion partners need not be part of it.

For the molecule “myc-tagged human GIV (wild type) (from UniProt Q3V6T2-3 1-1870)”, the binding result in experiment [1] and in experiment [2] was “binds” throughout.
In the case of “myc-tagged human GIV F1685A mutant (from UniProt Q3V6T2-3 1-1870)”, the binding entry in experiment [2] is given as “no binding”.

B1: untagged Dvl1 (protein, UniProt O14640 1-695)
chain: MAETKIIYHMDEEETPYLVKLPVAPERVTLADFKNVLSNRPVHAYKFFFKSMDQDFGVVKEEIFDDNAKLPCFNGRVVSWLVLAEGAHSDAGSQGTDSHTDLPPPLERTGGIGDSRPPSFHPNVASSRDGMDNETGTESMVSHRRERARRRNREEAARTNGHPRGDRRRDVGLPPDSASTALSSELESSSFVDSDEDGSTSRLSSSTEQSTSSRLIRKHKRRRRKQRLRQADRASSFSSITDSTMSLNIVTVTLNMERHHFLGISIVGQSNDRGDGGIYIGSIMKGGAVAADGRIEPGDMLLQVNDVNFENMSNDDAVRVLREIVSQTGPISLTVAKCWDPTPRSYFTVPRADPVRPIDPAAWLSHTAALTGALPRYGTSPCSSAVTRTSSSSLTSSVPGAPQLEEAPLTVKSDMSAVVRVMQLPDSGLEIRDRMWLKITIANAVIGADVVDWLYTHVEGFKERREARKYASSLLKHGFLRHTVNKITFSEQCYYVFGDLCSNLATLNLNSGSSGTSDQDTLAPLPHPAAPWPLGQGYPYQYPGPPPCFPPAYQDPGFSYGSGSTGSQQSEGSKSSGSTRSSRRAPGREKERRAAGAGGSGSESDHTAPSGVGSSWRERPAGQLSRGSSPRSQASATAPGLPPPHPTTKAYTVVGGPPGGPPVRELAAVPPELTGSRQSFQKAMGNPCEFFVDIM
With B1, the binding entry in experiment [3] is given as “no binding”.

The values above are taken from paper doi:10.1101/2020.09.28.317172.
